These are yes or no findings as the source states them, for the method shown. For some of these results: A result given as binding can be weak or reduced; the word gives no strength.
Legend:
[1] = biological target: IL-1R1 mutant 4 (rat residues at site 4, YSV); assay: Western blot of CHO conditioned medium, antibody at 0.5 ug/mL
[2] = biological target: IL-1R1 mutant 10 (rat residues at site 10, TCFA); assay: as above
[3] = biological target: IL-1R1 mutant 2 (rat residues at site 2, VIDE); assay: Western blot of CHO conditioned medium
[4] = biological target: IL-1R1 mutant 1 (rat residues at site 1, LSDIA); assay: Western blot of CHO conditioned medium

binding [1]: binds
binding [2]: binds
binding [3]: no binding (tested: 0.5 ug/mL)
binding [4]: no binding (tested: 0.5 ug/mL)
B1: anti-IL-1R1 monoclonal antibody 15C4 (antibody, V domains shown)
VH: EVQLMQSGAEVKKPGESLKISCKGSGYSFSFHWIAWVRQMPGKGLEWMGIIHPGASDTRYSPSFQGQVTISADNSNSATYLQWSSLKASDTAMYFCARQRELDYFDYWGQGTLVTVSS
VL: EIVLTQSPDFQSVTPKEKVTITCRASQSIGSSLHWYQQKPDQSPKLLIKYASQSFSGVPSRFSGSGSGTDFTLTINSLEAEDAAAYYCHQSSSLPLTFGGGTKVEIK

Reference: patent US20120269824A1
